Test results published in patent US20260125468A1.
Results are given in words; binding and its absence hold for the method and conditions named. Some binding calls cover weakened binding; strength is not graded here.

Sequences of proteins named here, by UniProt entry; tags and fusion partners are left off. A change or cut given only in a name is not applied to a line headed by its entry.
UniProt Q95LI5: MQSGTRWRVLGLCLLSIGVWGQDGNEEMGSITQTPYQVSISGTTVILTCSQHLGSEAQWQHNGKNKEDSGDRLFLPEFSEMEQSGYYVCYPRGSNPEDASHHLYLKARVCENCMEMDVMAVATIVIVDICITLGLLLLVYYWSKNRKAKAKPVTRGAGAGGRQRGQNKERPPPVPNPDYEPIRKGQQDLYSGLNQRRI
UniProt Q95LI8: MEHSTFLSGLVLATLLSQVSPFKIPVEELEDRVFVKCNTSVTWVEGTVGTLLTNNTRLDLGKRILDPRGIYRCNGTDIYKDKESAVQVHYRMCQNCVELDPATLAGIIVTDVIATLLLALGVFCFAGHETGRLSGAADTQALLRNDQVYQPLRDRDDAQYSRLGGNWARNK
UniProt Q95LI7: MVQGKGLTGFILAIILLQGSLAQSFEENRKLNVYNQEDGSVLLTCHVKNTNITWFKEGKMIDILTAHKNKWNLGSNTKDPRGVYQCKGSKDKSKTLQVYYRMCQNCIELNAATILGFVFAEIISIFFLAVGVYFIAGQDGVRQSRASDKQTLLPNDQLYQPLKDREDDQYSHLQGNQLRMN

How the values were obtained:
[1] = target: T1, CD3 on T cells in cynomolgus monkey PBMCs (cynomolgus monkey) (UniProt Q95LI5+Q95LI8+Q95LI7); assay: FACS on cynomolgus monkey PBMCs, 2-fold serial dilution from 200 nM [A]
[2] = target: T1, CD3 on T cells in cynomolgus monkey PBMCs (cynomolgus monkey); assay: flow cytometry on cynomolgus monkey PBMCs, diluted from 200 nM
[3] = target: T1, CD3 on T cells in cynomolgus monkey PBMCs (cynomolgus monkey); assay: flow cytometry and cytotoxicity with cynomolgus monkey PBMCs (summary of FIG. 16 and FIG. 17)

- binding [1]: binds
- binding [2]: binds
B1: PR010991, anti-CD3 3G11-HCAb hIgG1(C220S, AAA) (antibody, V domains shown)
VH: RVHLAESGGGLVQAGGSLRLSCAASGSRLNDNAMAWFRQAPGKEREFVGSIFWTGGNTYYADAVKGRLTISRDNAKNALYLQMNSLKPEDTAVYYCAASRVVWYYCSGYGCSRAGDYVYWGQGTQVTVSS
- binding [3]: binds
